Test results published in article PMC3899335, “ParABS System in Chromosome Partitioning in the Bacterium Myxococcus xanthus”.
The comparison behind a weaker result is the experiment's own reference, which may not be listed here. Tags and fusion partners may be left off the protein sequences shown.

Molecular target: T1, ParB (Myxococcus xanthus DK1050) (UniProt Q1CVJ4)
T1 sequence (looked up): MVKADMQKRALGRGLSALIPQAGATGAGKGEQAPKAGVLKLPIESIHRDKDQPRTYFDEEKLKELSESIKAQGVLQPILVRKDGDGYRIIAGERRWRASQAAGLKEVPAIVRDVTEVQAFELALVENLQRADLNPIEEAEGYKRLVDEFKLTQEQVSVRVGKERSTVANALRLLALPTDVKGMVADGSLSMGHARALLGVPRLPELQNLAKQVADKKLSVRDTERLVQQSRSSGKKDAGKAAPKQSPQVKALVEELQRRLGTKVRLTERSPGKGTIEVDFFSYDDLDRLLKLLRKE
Assay: EMSA (polyacrylamide)
Conditions: only a faint, barely detected band at highest ParB; 40 mM Na-phosphate pH 8, 20 mM NaCl, 7% glycerol, 20 ug/ml BSA, 100 ug/ml sheared salmon sperm DNA, 30 C (30 min agarose, 1 h polyacrylamide); gels run at 4 C; recombinant protein; residues 1-296; label: 32P 5' end

Does “ACTCACTCATGGCCTCCGTACCCTGCACAAGGTGAAGGATGACTCGAGCA (double strand) [mutated parS 50 bp (11 point mutations)]” bind?
Result: binds more weakly
